Measurements taken from ChEMBL document CHEMBL4316593 (Eur J Med Chem, 2019).
This continues a long series; more values of the same kind are listed elsewhere.

Experiments:
Type in all cases: cell-based
Details in all cases: U-87MG ATCC
[1] = Inhibition of RTK/PI3K/AKT/mTOR signaling in human U87 cells assessed as down regulation of SF3B2 gene expression at cytotoxic IC50 measured after 48 hrs relative to control
[2] = Inhibition of RTK/PI3K/AKT/mTOR signaling in human U87 cells assessed as up regulation of solute carrier family 36 member 4 gene expression at cytotoxic IC50 measured after 48 hrs relative to control
[3] = Inhibition of RTK/PI3K/AKT/mTOR signaling in human U87 cells assessed as up regulation of zinc finger protein 664 gene expression at cytotoxic IC50 measured after 48 hrs relative to control
[4] = Inhibition of RTK/PI3K/AKT/mTOR signaling in human U87 cells assessed as up regulation of C8orf58 gene expression at cytotoxic IC50 measured after 48 hrs relative to control
[5] = Inhibition of RTK/PI3K/AKT/mTOR signaling in human U87 cells assessed as up regulation of potassium two pore domain channel subfamily K member 6 gene expression at cytotoxic IC50 measured after 48 hrs relative to control
[6] = Inhibition of RTK/PI3K/AKT/mTOR signaling in human U87 cells assessed as up regulation of calcium voltage-gated channel subunit alpha1 H gene expression at cytotoxic IC50 measured after 48 hrs relative to control
[7] = Inhibition of RTK/PI3K/AKT/mTOR signaling in human U87 cells assessed as up regulation of UBE2C gene expression at cytotoxic IC50 measured after 48 hrs relative to control
[8] = Inhibition of RTK/PI3K/AKT/mTOR signaling in human U87 cells assessed as up regulation of alkB homolog 7 gene expression at cytotoxic IC50 measured after 48 hrs relative to control
[9] = Inhibition of RTK/PI3K/AKT/mTOR signaling in human U87 cells assessed as up regulation of NOP14 nucleolar protein gene expression at cytotoxic IC50 measured after 48 hrs relative to control
[10] = Inhibition of RTK/PI3K/AKT/mTOR signaling in human U87 cells assessed as down regulation of BCL2L12 gene expression at cytotoxic IC50 measured after 48 hrs relative to control
[11] = Inhibition of RTK/PI3K/AKT/mTOR signaling in human U87 cells assessed as up regulation of heat shock protein family A (Hsp70) member 5 gene expression at cytotoxic IC50 measured after 48 hrs relative to control
[12] = Inhibition of RTK/PI3K/AKT/mTOR signaling in human U87 cells assessed as down regulation of SH3BP5 gene expression at cytotoxic IC50 measured after 48 hrs relative to control
[13] = Inhibition of RTK/PI3K/AKT/mTOR signaling in human U87 cells assessed as down regulation of HRH1 gene expression at cytotoxic IC50 measured after 48 hrs relative to control
[14] = Inhibition of RTK/PI3K/AKT/mTOR signaling in human U87 cells assessed as up regulation of KLHL29 gene expression at cytotoxic IC50 measured after 48 hrs relative to control
[15] = Inhibition of RTK/PI3K/AKT/mTOR signaling in human U87 cells assessed as down regulation of MED23 gene expression at cytotoxic IC50 measured after 48 hrs relative to control
[16] = Inhibition of RTK/PI3K/AKT/mTOR signaling in human U87 cells assessed as up regulation of leucine rich repeat and fibronectin type III domain containing 3 gene expression at cytotoxic IC50 measured after 48 hrs relative to control
[17] = Inhibition of RTK/PI3K/AKT/mTOR signaling in human U87 cells assessed as up regulation of solute carrier family 39 member 1 gene expression at cytotoxic IC50 measured after 48 hrs relative to control
[18] = Inhibition of RTK/PI3K/AKT/mTOR signaling in human U87 cells assessed as down regulation of CSTF3 gene expression at cytotoxic IC50 measured after 48 hrs relative to control
[19] = Inhibition of RTK/PI3K/AKT/mTOR signaling in human U87 cells assessed as up regulation of unc-93 homolog B1 (C. elegans) gene expression at cytotoxic IC50 measured after 48 hrs relative to control
[20] = Inhibition of RTK/PI3K/AKT/mTOR signaling in human U87 cells assessed as down regulation of STRIP1 gene expression at cytotoxic IC50 measured after 48 hrs relative to control
[21] = Inhibition of RTK/PI3K/AKT/mTOR signaling in human U87 cells assessed as down regulation of PLEKHF2 gene expression at cytotoxic IC50 measured after 48 hrs relative to control
[22] = Inhibition of RTK/PI3K/AKT/mTOR signaling in human U87 cells assessed as up regulation of RAB6A, member RAS oncogene family gene expression at cytotoxic IC50 measured after 48 hrs relative to control
[23] = Inhibition of RTK/PI3K/AKT/mTOR signaling in human U87 cells assessed as up regulation of solute carrier family 17 member 5 gene expression at cytotoxic IC50 measured after 48 hrs relative to control
[24] = Inhibition of RTK/PI3K/AKT/mTOR signaling in human U87 cells assessed as down regulation of ZNF622 gene expression at cytotoxic IC50 measured after 48 hrs relative to control
[25] = Inhibition of RTK/PI3K/AKT/mTOR signaling in human U87 cells assessed as up regulation of transmembrane protein 63C gene expression at cytotoxic IC50 measured after 48 hrs relative to control
[26] = Inhibition of RTK/PI3K/AKT/mTOR signaling in human U87 cells assessed as down regulation of UTP6 gene expression at cytotoxic IC50 measured after 48 hrs relative to control
[27] = Inhibition of RTK/PI3K/AKT/mTOR signaling in human U87 cells assessed as down regulation of MED10 gene expression at cytotoxic IC50 measured after 48 hrs relative to control
[28] = Inhibition of RTK/PI3K/AKT/mTOR signaling in human U87 cells assessed as down regulation of CYTH2 gene expression at cytotoxic IC50 measured after 48 hrs relative to control
[29] = Inhibition of RTK/PI3K/AKT/mTOR signaling in human U87 cells assessed as down regulation of TRIM21 gene expression at cytotoxic IC50 measured after 48 hrs relative to control
[30] = Inhibition of RTK/PI3K/AKT/mTOR signaling in human U87 cells assessed as down regulation of TRAF6 gene expression at cytotoxic IC50 measured after 48 hrs relative to control
[31] = Inhibition of RTK/PI3K/AKT/mTOR signaling in human U87 cells assessed as down regulation of CSNK1A1 gene expression at cytotoxic IC50 measured after 48 hrs relative to control
[32] = Inhibition of RTK/PI3K/AKT/mTOR signaling in human U87 cells assessed as up regulation of VHL gene expression at cytotoxic IC50 measured after 48 hrs relative to control

`CC(=O)C(=NNc1ccccc1C#N)C(C)=O` gave a log2FC [1] of -0.645, a log2FC [2] of 1.03 and a log2FC [3] of 0.674. The log2FC [4] was 2.43, the log2FC [5] was 1.38 and the log2FC [6] was 0.962. For the same molecule, the log2FC [7] was 0.628, the log2FC [8] was 1.1 and the log2FC [9] was 0.672. For the same molecule, the log2FC [10] was -1.34, the log2FC [11] was 0.783 and the log2FC [12] was -1.11. It also gave a log2FC [13] of -1.1, a log2FC [14] of 0.589 and a log2FC [15] of -0.679. For the same molecule, the log2FC [16] was 0.974, the log2FC [17] was 0.684 and the log2FC [18] was -1.2. The log2FC [19] was 1.33, the log2FC [20] was -0.856 and the log2FC [21] was -0.743. The log2FC [22] was 0.688, the log2FC [23] was 1.26 and the log2FC [24] was -1.08. The log2FC [25] was 1.35, the log2FC [26] was -1.04 and the log2FC [27] was -0.778. For the same molecule, the log2FC [28] was -0.507, the log2FC [29] was -1.02 and the log2FC [30] was -0.984. The log2FC [31] was -0.571 and the log2FC [32] was 0.562.
